US9517222B2, “Method for the treatment of senile dementia of the Alzheimer's type” (Phenomenome Discoveries Inc., priority 2007, dated 2016)
A unit is not stated for every read-out.

Key:
[1] = Serum ethanolamine phospholipid levels in human cohorts (dementia severity, post-mortem pathology, age) by flow-injection MS/MS
[2] = Serum ethanolamine phospholipid ratios to PtdEt 16:0/18:0 (M01) in human cohorts
[3] = serum, females, post mortem SDAT
[4] = serum, females, post mortem control

For `CCCCCCCC/C=C\CCCCCCCC(=O)OC(CO/C=C\CCCCCCCCCCCCCCCC)COP(=O)(O)OCCN` (centres unmarked) [Metabolite M20, Plasmenyl 18:0/18:1], the “Ratio of serum levels” value ([1]; AD, All to CN, Male) was 0.826, the “Ratio of serum levels” value ([1]; ADAS 5-19 to CN, Male) was 0.892 and the “Ratio of serum levels” value ([1]; ADAS 20-39 to 5-19, Male) was 0.880. For the same molecule, the “Ratio of serum levels” value ([1]; ADAS 20-39 to CN, Male) was 0.786, the “Ratio of serum levels” value ([1]; ADAS 40-70 to 5-19, Male) was 0.854 and the “Ratio of serum levels” value ([1]; ADAS 40-70 to 20-39, Male) was 0.970. For the same molecule, the “Ratio of serum levels” value ([1]; ADAS 40-70 to CN, Male) was 0.762, the “Serum level, Mean” value ([1]; Cognitive Normal, Female) was 0.077 and the “Average serum level, Mean” value ([1]; Cognitive Normal, Male) was 0.078. The “Serum level, Mean” value ([1]; Post Mortem Ctl, Male) was 0.031, the “Serum level, Mean” value ([1]; Post Mortem SDAT Male) was 0.017 and the “Ratio of serum levels” value ([1]; Post mortem SDAT vs Control, Male) was 0.542. For the same molecule, the “Serum level, Mean” value ([1]; SDAT, ADAS 5-19, Female) was 0.064, the “Average serum level, Mean” value ([1]; SDAT, ADAS 5-19, Male) was 0.069 and the “Serum level, Mean” value ([1]; SDAT, ADAS 20-39, Female) was 0.060. For the same molecule, the “Average serum level, Mean” value ([1]; SDAT, ADAS 20-39, Male) was 0.061, the “Serum level, Mean” value ([1]; SDAT, ADAS 40-70, Female) was 0.054 and the “Average serum level, Mean” value ([1]; SDAT, ADAS 40-70, Male) was 0.059. The “Serum level, Mean” value ([1]; SDAT_all, Female) was 0.059, the “Average serum level, Mean” value ([1]; SDAT_all, Male) was 0.064 and the “Ratio, ADAS 5-19 to CN, Female” value ([1]; serum level ratio, females, ADAS 5-19 vs CN) was 0.828. The “Ratio, ADAS 20-39 to 5-19, Female” value ([1]; serum level ratio, females, ADAS 20-39 vs ADAS 5-19) was 0.945, the “Ratio, ADAS 20-39 to CN, Female” value ([1]; serum level ratio, females, ADAS 20-39 vs CN) was 0.782 and the “Ratio, ADAS 40-70 to 5-19, Female” value ([1]; serum level ratio, females, ADAS 40-70 vs ADAS 5-19) was 0.849. The “Ratio, ADAS 40-70 to 20-39, Female” value ([1]; serum level ratio, females, ADAS 40-70 vs ADAS 20-39) was 0.898, the “Ratio, ADAS 40-70 to CN, Female” value ([1]; serum level ratio, females, ADAS 40-70 vs CN) was 0.703 and the “Ratio, 50-59 vs. 40-49, Female” value ([1]; serum level ratio, females, age 50-59 vs 40-49) was 0.843. For the same molecule, the “Ratio, 60-69 vs. 40-49, Female” value ([1]; serum level ratio, females, age 60-69 vs 40-49) was 0.842, the “Ratio, 70+ vs. 40-49, Female” value ([1]; serum level ratio, females, age 70+ vs 40-49) was 0.905 and the “Ratio, AD, All to CN, Female” value ([1]; serum level ratio, females, all AD vs cognitively normal) was 0.768. For the same molecule, the “Ratio, Autopsy AD vs. Control, Female” value ([1]; serum level ratio, females, autopsy AD vs control) was 0.410, the “Ratio, 50-59 vs. 40-49, Male” value ([1]; serum level ratio, males, age 50-59 vs 40-49) was 0.971 and the “Ratio, 60-69 vs. 40-49, Male” value ([1]; serum level ratio, males, age 60-69 vs 40-49) was 0.976. For the same molecule, the “Ratio, 70+ vs. 40-49, Male” value ([1]; serum level ratio, males, age 70+ vs 40-49) was 1.014, the “Mean serum level, Age Ctl, 30-39, Female” value ([1]; serum, females, age 30-39) was 0.074 and the “Mean serum level, Age Ctl, 40-49, Female” value ([1]; serum, females, age 40-49) was 0.075. For the same molecule, the “Mean serum level, Age Ctl, 50-59, Female” value ([1]; serum, females, age 50-59) was 0.063, the “Mean serum level, Age Ctl, 60-69, Female” value ([1]; serum, females, age 60-69) was 0.063 and the “Mean serum level, Age Ctl, 70+, Female” value ([1]; serum, females, age 70+) was 0.068. The “Mean serum level, Post Mortem SDAT, Female” value [1, 3] was 0.021, the “Mean serum level, Post Mortem Ctl, Female” value [1, 4] was 0.050 and the “Mean serum level, Age Ctl, 30-39, Male” value ([1]; serum, males, age 30-39) was 0.086. The “Mean serum level, Age Ctl, 40-49, Male” value ([1]; serum, males, age 40-49) was 0.070, the “Mean serum level, Age Ctl, 50-59, Male” value ([1]; serum, males, age 50-59) was 0.068 and the “Mean serum level, Age Ctl, 60-69, Male” value ([1]; serum, males, age 60-69) was 0.069. For the same molecule, the “Mean serum level, Age Ctl, 70+, Male” value ([1]; serum, males, age 70+) was 0.071, the “Ratio of ethanolamine phospholipid ratios to M01 between cohorts” value (shortened to “Ratio … to M01 between cohorts”) ([2]; AD, All to CN, Male) was 0.793 and the “Ratio … to M01 between cohorts” value ([2]; ADAS 5-19 to CN, Male) was 0.858. For the same molecule, the “Ratio … to M01 between cohorts” value ([2]; ADAS 20-39 to CN, Male) was 0.769, the “Ratio … to M01 between cohorts” value ([2]; ADAS 40-70 to CN, Male) was 0.736 and the “Average serum ethanolamine phospholipid ratio to M01, Mean” value ([2]; Cognitive Normal, Male, serum) was 0.692. The “Average serum ethanolamine phospholipid ratio to M01, Mean” value ([2]; SDAT, ADAS 5-19, Male, serum) was 0.593, the “Average serum ethanolamine phospholipid ratio to M01, Mean” value ([2]; SDAT, ADAS 20-39, Male, serum) was 0.532 and the “Average serum ethanolamine phospholipid ratio to M01, Mean” value ([2]; SDAT, ADAS 40-70, Male, serum) was 0.509. The “Average serum ethanolamine phospholipid ratio to M01, Mean” value ([2]; SDAT_all, Male, serum) was 0.548, the “Ethanolamine Phospholipid Ratio to M01, Mean, Age Ctl, 30-39, Female” value ([2]; human serum, females aged 30-39) was 0.708 and the “Ethanolamine Phospholipid Ratio to M01, Mean, Age Ctl, 40-49, Female” value ([2]; human serum, females aged 40-49) was 0.682. The “Ethanolamine Phospholipid Ratio to M01, Mean, Age Ctl, 50-59, Female” value ([2]; human serum, females aged 50-59) was 0.637, the “Ratio of Ethanolamine Phospholipid Ratio to M01, 50-59 vs. 40-49, Female” value ([2]; human serum, females aged 50-59 vs. females aged 40-49) was 0.935 and the “Ethanolamine Phospholipid Ratio to M01, Mean, Age Ctl, 60-69, Female” value ([2]; human serum, females aged 60-69) was 0.524. For the same molecule, the “Ratio of Ethanolamine Phospholipid Ratio to M01, 60-69 vs. 40-49, Female” value ([2]; human serum, females aged 60-69 vs. females aged 40-49) was 0.769, the “Ethanolamine Phospholipid Ratio to M01, Mean, Age Ctl, 70+_Female” value ([2]; human serum, females aged 70+) was 0.565 and the “Ratio of Ethanolamine Phospholipid Ratio to M01, 70+ vs. 40-49, Female” value ([2]; human serum, females aged 70+ vs. females aged 40-49) was 0.828. The “Ratio of Ethanolamine Phospholipid Ratio to M01, 50-59 vs. 40-49, Male” value ([2]; human serum, males aged 50-59 vs. males aged 40-49) was 1.004, the “Ratio of Ethanolamine Phospholipid Ratio to M01, 60-69 vs. 40-49, Male” value ([2]; human serum, males aged 60-69 vs. males aged 40-49) was 0.858 and the “Ratio of Ethanolamine Phospholipid Ratio to M01, 70+ vs. 40-49, Male” value ([2]; human serum, males aged 70+ vs. males aged 40-49) was 0.898. For the same molecule, the “Ratio of ethanolamine phospholipid ratio to M01, ADAS 5-19 to CN, Female” value ([2]; serum, females, ADAS 5-19 vs cognitive normal) was 0.878, the “Ratio of ethanolamine phospholipid ratio to M01, ADAS 20-39 to 5-19, Female” value ([2]; serum, females, ADAS 20-39 vs ADAS 5-19) was 0.941 and the “Ratio of ethanolamine phospholipid ratio to M01, ADAS 20-39 to CN, Female” value ([2]; serum, females, ADAS 20-39 vs cognitive normal) was 0.826. The “Ratio of ethanolamine phospholipid ratio to M01, ADAS 40-70 to 5-19, Female” value ([2]; serum, females, ADAS 40-70 vs ADAS 5-19) was 0.808, the “Ratio of ethanolamine phospholipid ratio to M01, ADAS 40-70 to 20-39, Female” value ([2]; serum, females, ADAS 40-70 vs ADAS 20-39) was 0.858 and the “Ratio of ethanolamine phospholipid ratio to M01, ADAS 40-70 to CN, Female” value ([2]; serum, females, ADAS 40-70 vs cognitive normal) was 0.709. For the same molecule, the “Ethanolamine phospholipid ratio to M01, Mean, SDAT, ADAS 5-19, Female” value ([2]; serum, females, SDAT ADAS 5-19) was 0.587, the “Ethanolamine phospholipid ratio to M01, Mean, SDAT, ADAS 20-39, Female” value ([2]; serum, females, SDAT ADAS 20-39) was 0.553 and the “Ethanolamine phospholipid ratio to M01, Mean, SDAT, ADAS 40-70, Female” value ([2]; serum, females, SDAT ADAS 40-70) was 0.474. For the same molecule, the “Ratio of ethanolamine phospholipid ratio to M01, AD, All to CN, Female” value ([2]; serum, females, all AD vs cognitive normal) was 0.800, the “Ethanolamine phospholipid ratio to M01, Mean, SDAT_all Female” value ([2]; serum, females, all SDAT) was 0.535 and the “Ratio of ethanolamine phospholipid ratio to M01, Autopsy AD vs. Control, Female” value ([2]; serum, females, autopsy AD vs post mortem control) was 0.680. For the same molecule, the “Ethanolamine phospholipid ratio to M01, Mean, Cognitive Normal, Female” value ([2]; serum, females, cognitive normal) was 0.669, the “Ethanolamine phospholipid ratio to M01, Mean, Post Mortem SDAT Female” value [2, 3] was 0.193 and the “Ethanolamine phospholipid ratio to M01, Mean, Post Mortem Ctl, Female” value [2, 4] was 0.283. The “Ratio of ethanolamine phospholipid ratio to M01, ADAS 20-39 to 5-19, Male” value ([2]; serum, males, SDAT ADAS 20-39 vs ADAS 5-19) was 0.896, the “Ratio of ethanolamine phospholipid ratio to M01, ADAS 40-70 to 5-19, Male” value ([2]; serum, males, SDAT ADAS 40-70 vs ADAS 5-19) was 0.858 and the “Ratio of ethanolamine phospholipid ratio to M01, ADAS 40-70 to 20-39, Male” value ([2]; serum, males, SDAT ADAS 40-70 vs ADAS 20-39) was 0.957. For the same molecule, the “Ethanolamine phospholipid ratio to M01, Mean, Age Ctl, 30-39, Male” value ([2]; serum, males, age control 30-39) was 0.691, the “Ethanolamine phospholipid ratio to M01, Mean, Age Ctl, 40-49, Male” value ([2]; serum, males, age control 40-49) was 0.616 and the “Ethanolamine phospholipid ratio to M01, Mean, Age Ctl, 50-59, Male” value ([2]; serum, males, age control 50-59) was 0.619. For the same molecule, the “Ethanolamine phospholipid ratio to M01, Mean, Age Ctl, 60-69, Male” value ([2]; serum, males, age control 60-69) was 0.529, the “Ethanolamine phospholipid ratio to M01, Mean, Age Ctl, 70+_Male” value ([2]; serum, males, age control 70+) was 0.553 and the “Ethanolamine phospholipid ratio to M01, Mean, Post Mortem SDAT Male” value ([2]; serum, males, post mortem SDAT) was 0.187. The “Ratio of ethanolamine phospholipid ratio to M01, SDAT vs Control (post mortem, males)” value ([2]; serum, males, post mortem SDAT vs post mortem control) was 0.737 and the “Ethanolamine phospholipid ratio to M01, Mean, Post Mortem Ctl, Male” value ([2]; serum, males, post mortem control) was 0.254.
